Assay [1] in a line: DRUGMATRIX: Calcium Channel Type L, Phenylalkylamine radioligand binding (ligand: [3H] (-)-Desmethoxyverapamil (D-888)). The following applies: Not Active = under 50% inhibition at 10 µM. The class given is cell membranes, Rattus norvegicus, Wistar, Brain, Membrane.
Assay [2] is described as follows: DRUGMATRIX: Serotonin (5-Hydroxytryptamine) 5-HT3 radioligand binding (ligand: [3H] GR-65630). The following applies: hek293; Not Active = under 50% inhibition at 10 µM. In kind it is cell membranes, Membrane.
Assay [3] in a line: DRUGMATRIX: Phorbol Ester radioligand binding (ligand: [3H] PDBu). The class given is cell membranes, Mus musculus, ICR, Brain, Membrane. The following applies: Not Active = under 50% inhibition at 10 µM.
Assay [4] is described as follows: DRUGMATRIX: Potassium Channel [KATP] radioligand binding (ligand: [3H] Glyburide). The class given is cell membranes, Membrane. The following applies: hit-t15; Not Active = under 50% inhibition at 10 µM.
A further assay has as its target Cytochrome P450 2C9 (Homo sapiens, UniProt P11712). Also: in other assays of this panel Not Active means under 50% inhibition at 10 µM.
Assay [5] has as its target Muscarinic acetylcholine receptor M2 (Homo sapiens, UniProt P08172). In kind it is cell membranes, Membrane. The following applies: cho-k1. Also: in other assays of this panel Not Active means under 50% inhibition at 10 µM.
For assay [6], the target named is Sodium-dependent dopamine transporter (Homo sapiens, UniProt Q01959). Nature of the assay: DRUGMATRIX: Dopamine Transporter radioligand binding (ligand: [125I] RTI-55). In kind it is cell membranes, Membrane. The following applies: cho-k1; Not Active = under 50% inhibition at 10 µM.
The target in assay [7] is Voltage-gated inwardly rectifying potassium channel KCNH2 (Homo sapiens, UniProt Q12809). Also: in other assays of this panel Not Active means under 50% inhibition at 10 µM.

The chains behind the UniProt entries cited, without tags or fusion partners. Where a name states a change or a piece, a line headed by the entry shows the natural chain unless it says otherwise.
UniProt P11712, whole entry: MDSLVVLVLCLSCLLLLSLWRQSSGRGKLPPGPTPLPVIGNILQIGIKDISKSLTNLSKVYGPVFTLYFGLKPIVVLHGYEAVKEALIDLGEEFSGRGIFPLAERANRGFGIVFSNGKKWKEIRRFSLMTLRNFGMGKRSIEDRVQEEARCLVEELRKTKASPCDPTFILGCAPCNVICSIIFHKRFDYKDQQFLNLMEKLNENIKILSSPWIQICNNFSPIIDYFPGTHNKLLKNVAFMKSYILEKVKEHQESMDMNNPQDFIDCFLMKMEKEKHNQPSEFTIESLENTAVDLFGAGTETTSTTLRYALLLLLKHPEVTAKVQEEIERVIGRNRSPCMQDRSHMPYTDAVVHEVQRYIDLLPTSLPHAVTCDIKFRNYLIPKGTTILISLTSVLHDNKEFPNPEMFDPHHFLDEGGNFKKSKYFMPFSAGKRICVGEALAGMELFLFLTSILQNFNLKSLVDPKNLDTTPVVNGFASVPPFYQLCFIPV
UniProt P08172, whole entry: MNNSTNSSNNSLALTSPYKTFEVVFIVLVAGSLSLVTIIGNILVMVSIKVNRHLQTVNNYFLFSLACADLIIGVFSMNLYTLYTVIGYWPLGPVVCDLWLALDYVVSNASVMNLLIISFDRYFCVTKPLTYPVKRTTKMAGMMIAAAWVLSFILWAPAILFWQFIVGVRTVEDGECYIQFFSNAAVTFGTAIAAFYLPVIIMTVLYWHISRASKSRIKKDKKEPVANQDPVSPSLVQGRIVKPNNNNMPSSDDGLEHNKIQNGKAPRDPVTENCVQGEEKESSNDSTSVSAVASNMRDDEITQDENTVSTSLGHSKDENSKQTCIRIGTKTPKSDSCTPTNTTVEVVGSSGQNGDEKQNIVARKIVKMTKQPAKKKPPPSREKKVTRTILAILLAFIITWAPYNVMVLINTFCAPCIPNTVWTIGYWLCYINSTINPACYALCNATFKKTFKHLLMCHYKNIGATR
UniProt Q01959, whole entry: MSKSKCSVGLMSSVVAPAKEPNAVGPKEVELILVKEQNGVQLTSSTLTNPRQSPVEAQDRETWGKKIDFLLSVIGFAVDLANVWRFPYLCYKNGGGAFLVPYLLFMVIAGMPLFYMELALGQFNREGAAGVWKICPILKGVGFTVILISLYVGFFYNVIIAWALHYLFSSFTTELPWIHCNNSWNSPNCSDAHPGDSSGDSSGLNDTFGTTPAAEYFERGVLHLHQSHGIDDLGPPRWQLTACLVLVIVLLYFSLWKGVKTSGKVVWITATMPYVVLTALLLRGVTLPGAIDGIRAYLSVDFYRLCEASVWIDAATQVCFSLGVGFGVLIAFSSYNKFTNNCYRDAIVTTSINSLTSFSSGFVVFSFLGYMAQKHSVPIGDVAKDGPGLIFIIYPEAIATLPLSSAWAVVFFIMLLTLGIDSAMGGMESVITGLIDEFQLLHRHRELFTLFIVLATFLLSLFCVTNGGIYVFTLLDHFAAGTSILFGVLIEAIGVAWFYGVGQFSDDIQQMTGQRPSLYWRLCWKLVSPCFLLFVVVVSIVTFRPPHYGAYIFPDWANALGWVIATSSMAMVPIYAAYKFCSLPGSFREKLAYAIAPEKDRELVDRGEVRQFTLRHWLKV
UniProt Q12809: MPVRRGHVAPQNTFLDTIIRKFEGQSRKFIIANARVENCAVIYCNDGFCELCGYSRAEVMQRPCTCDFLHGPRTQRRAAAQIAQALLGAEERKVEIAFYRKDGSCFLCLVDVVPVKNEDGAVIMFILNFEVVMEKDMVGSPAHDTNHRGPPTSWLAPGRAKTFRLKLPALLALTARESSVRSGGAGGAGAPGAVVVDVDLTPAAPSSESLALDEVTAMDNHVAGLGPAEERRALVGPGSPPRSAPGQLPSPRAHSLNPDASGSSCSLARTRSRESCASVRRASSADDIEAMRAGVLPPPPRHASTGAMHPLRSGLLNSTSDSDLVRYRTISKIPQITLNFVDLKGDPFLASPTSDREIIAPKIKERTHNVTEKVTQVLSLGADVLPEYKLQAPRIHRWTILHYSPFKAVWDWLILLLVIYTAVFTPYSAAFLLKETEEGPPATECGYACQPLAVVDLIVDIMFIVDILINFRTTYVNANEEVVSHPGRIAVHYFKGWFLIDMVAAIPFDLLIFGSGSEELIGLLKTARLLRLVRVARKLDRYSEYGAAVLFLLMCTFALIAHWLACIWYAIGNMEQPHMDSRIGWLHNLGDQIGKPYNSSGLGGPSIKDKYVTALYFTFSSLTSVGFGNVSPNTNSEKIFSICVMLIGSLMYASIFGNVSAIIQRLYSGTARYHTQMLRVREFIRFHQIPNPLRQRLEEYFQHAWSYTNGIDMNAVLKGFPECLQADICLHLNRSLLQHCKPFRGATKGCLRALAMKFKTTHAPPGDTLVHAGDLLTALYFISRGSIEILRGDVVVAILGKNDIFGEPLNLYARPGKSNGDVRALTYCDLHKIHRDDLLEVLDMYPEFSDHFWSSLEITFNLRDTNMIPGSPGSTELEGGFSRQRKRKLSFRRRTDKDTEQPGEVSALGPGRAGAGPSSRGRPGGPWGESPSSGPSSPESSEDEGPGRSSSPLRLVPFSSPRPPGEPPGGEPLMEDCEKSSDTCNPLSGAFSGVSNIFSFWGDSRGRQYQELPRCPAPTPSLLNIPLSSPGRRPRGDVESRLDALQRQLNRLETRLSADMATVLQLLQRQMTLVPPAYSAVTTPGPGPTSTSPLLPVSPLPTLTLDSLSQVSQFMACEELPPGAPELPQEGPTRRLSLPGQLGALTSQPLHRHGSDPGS

Structures are written as SMILES.

For the molecule `C[S+]([O-])c1ccc(-c2nc(-c3ccc(F)cc3)c(-c3ccncc3)[nH]2)cc1` (stereo not drawn) [SB-203580], the IC50 entry in assay [1], in assay [2], in assay [3] and in assay [4] was “Not Active” each time. Besides, the Ki result in assay [1], in assay [2], in assay [3] and in assay [4] was “Not Active” each time.
In the case of `Clc1ccc(CSC(Cn2ccnc2)c2ccc(Cl)cc2Cl)cc1` (stereo not drawn) [SULCONAZOLE], the figures for the half-maximal inhibitory concentration (IC50) (against Cytochrome P450 2C9; in assay [5]) were 200 nM and “Not Active”, respectively.
On to `CCN(CC)CCOC(=O)C1(C2CCCCC2)CCCCC1` [DICYCLOMINE], for which the concentration for half-maximal inhibition (IC50) result is “Not Active” in assay [6] and 20.6 µM in assay [7]. In assay [7], this molecule gave an inhibition constant (Ki) of 16.9 µM.

The term IC50 denotes the midpoint of a concentration-inhibition curve. Broadly, the Ki is a dissociation constant, usually derived from enzyme kinetics or from competition with a known ligand.

These data come from ChEMBL document CHEMBL1909046, “DrugMatrix in vitro pharmacology data”.
